About 25 (0.01%) of roughly 200,000 compounds were called active. Inconclusive means that the source gave no clear call. Such entries were picked first, then a sample of the others. Calls follow the shape of the dose curve; as a rule, active = well fitted inhibition curve with a large enough effect in the signal ratio, with a control signal flat (not every such curve was filed as active); inconclusive = small, poorly fitted or top-dose-only effect, or effect the other way, or a change in a side signal; inactive = flat fitted curve, though single readings scatter; the % refers to the signal ratio. Potencies of inconclusive entries are doubtful fits and often do not repeat.
Assay: qHTS Assay for Modulators of Lamin A Splicing
Conditions: HeLa LMNA splicing GFP/RFP minigene ratio, 48 h; ratio change, negative = inhibition: at 46.1 µM (top of the series) unless noted
Outline: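 S3 HeLa stable clones carrying a lamin A-EGFP splicing minigene plus DsRed2 were seeded at 600 cells/well in Opti-MEM with 2% FBS, pin-dosed and incubated 48 h at 37°C. Acumen cytometry (488 nm) gave the GFP/RFP total-intensity ratio.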
% is scaled to controls: 0 for no effect and ±100 for the full control effect; potency is read from the fitted curve at half-maximal effect.

Compound	ratio change, negative = inhibition	Potency
O=C(COC(=O)c1c(Cl)cccc1Cl)Nc1cc(Cl)ccc1Oc1ccccc1	inconclusive: -19.4%	
O=C(O)c1ccc(NS(=O)(=O)c2cc(Cl)ccc2Cl)cc1O	inactive	
COc1ccc(NC(=O)C(C)N2C(=O)c3ccccc3C2=O)cc1S(=O)(=O)N1CCOCC1 (configuration not stated)	inactive	
O=C(NCC12CC3CC(CC(C3)C1)C2)c1nn2cccnc2c1Cl	inactive	
COc1ccc(C(C)C)cc1S(=O)(=O)N1CCN(c2ccccc2)CC1	inconclusive: 14.3% [at 46 µM]	
CC12CCC(C/C1=N/NC(=O)COc1ccccc1Cl)C2(C)C (configuration not stated)	inconclusive: 14.9% [at 46 µM]	
COc1ccc(Cl)cc1NC(=O)c1cc(S(=O)(=O)NC2CCCCCC2)ccc1F	inactive	
CN(Cc1ccco1)c1ccnc(-c2cccc(NS(C)(=O)=O)c2)n1	inconclusive: 18.8%	
CCN(CC(=O)Nc1ccccc1OC)CC(=O)Nc1c(Cl)ccc(C)c1Cl	inconclusive: 19.9% [at 46 µM]	
Cc1cccc(N2C(=O)N(CC(=O)C(C)(C)C)c3ccccc3S2(=O)=O)c1C	inconclusive: -13.5% [at 46 µM]	
CC(C)NC[C@@H](O)COc1ccc(COCCOC(C)C)cc1	inconclusive: -11.7%	
COc1ccc(OCc2ccc(-c3nc4ccccc4c(=O)n3N)o2)cc1	inconclusive: -24.9%	
O=C(NC[C@@H](O)CO)c1c(I)c(C(=O)NC[C@@H](O)CO)c(I)c(N(CCO)C(=O)CO)c1I	inconclusive: 7.26%	
O=C1OCCN1C(=O)[C@H]1[C@H](c2ccc(Cl)cc2)C(c2cccc(Cl)c2)=NN1c1ccccc1	inconclusive: -35.7%	
COc1ccc2[nH]cc(CCNc3ncncc3-c3ccccc3OC)c2c1	inconclusive: -13.2%	
Cc1ccccc1C(=O)Nc1ccc(OCc2cc(=O)n3cccc(C)c3n2)cc1	inconclusive: -12% [at 46 µM]	
CN1CCN(C(=S)NC(=O)/C=C/c2ccccc2Cl)CC1	inconclusive: 8.51% [at 46 µM]	
CC1(OC(=O)c2ccc(Cl)nc2)C(=O)C=C2C=C3CCCN3C=C2C1=O (configuration not stated)	inactive: 2.52% [at 9.22 µM]	
Cc1cc(C)cc(C(=O)OCC(=O)NCc2cccs2)c1	inactive	
CSc1nc(N(C)NC(=O)c2cccc(C)c2)c2ccccc2n1	inconclusive: -28.1%	
CCOC(=O)c1sc2nc(CN3CCCCC3)nc(Cl)c2c1C	inactive	

Another view of some results above.
COc1ccc(OCc2ccc(-c3nc4ccccc4c(=O)n3N)o2)cc1
  ratio change, negative = inhibition: inconclusive: -24.9%
O=C(NC[C@@H](O)CO)c1c(I)c(C(=O)NC[C@@H](O)CO)c(I)c(N(CCO)C(=O)CO)c1I
  ratio change, negative = inhibition: inconclusive: 7.26%
O=C1OCCN1C(=O)[C@H]1[C@H](c2ccc(Cl)cc2)C(c2cccc(Cl)c2)=NN1c1ccccc1
  ratio change, negative = inhibition: inconclusive: -35.7%
COc1ccc2[nH]cc(CCNc3ncncc3-c3ccccc3OC)c2c1
  ratio change, negative = inhibition: inconclusive: -13.2%

Next results follow:

Compound	ratio change, negative = inhibition	Potency
CC1CCN(C(=O)CCc2ccc(S(=O)(=O)NC(C)C)cc2)CC1	inconclusive: 3.89%	
CC(=O)Nc1cc(OC(C)=O)c2nonc2c1OC(C)=O		inconclusive: 8.91 µM [cytotoxic, partial curve, poor fit]
O=C(NCCNS(=O)(=O)c1ccccc1Cl)c1cc(OCC(F)(F)F)ccc1OCC(F)(F)F		inconclusive: 2.24 µM [activator, full curve]
C/C(=N\NC(=S)NC(C)C)c1ccc2c(c1)OCCO2	inactive	
CC(C)CCNC(=O)c1c[nH]c2ccc(S(=O)(=O)N3CCC4(CC3)OCCO4)cc2c1=O	inconclusive: -0.609%	
CC1=NN(c2ccccc2)C(=O)/C1=C\N1CC(C)OC(C)C1 (configuration not stated)	inactive	
Cc1ccc(-n2c(SCc3cccc(F)c3)nc3[nH]ncc3c2=O)cc1C	inconclusive: 132% [at 46 µM]	
CCNC(=O)[C@H]1O[C@@H](n2cnc3c(N)nc(NCCc4ccc(CCC(=O)O)cc4)nc32)[C@H](O)[C@H]1O	inconclusive: -1.35%	
C=CCn1c(NC(=O)c2ccc(C)cc2)c(C#N)sc1=N	inconclusive: 11.9%	
Cc1ccc(OCCSc2nc(NC(C)C)nc(NC(C)C)n2)cc1		inconclusive: 35.5 µM [fluorescent, single point]
CCCOc1ccc(/C=c2\sc3ncnn3c2=O)cc1	inconclusive: 15.9% [at 46 µM]	
N#Cc1c(-c2ccccc2)c(-c2ccccc2)nn(CC(=O)NNC(=O)Nc2ccc(Cl)c(Cl)c2)c1=O		inconclusive: 35.5 µM [cytotoxic, single point]
O=C(Cc1ccccc1)N(Cc1cccnc1)c1nc2c(F)cc(F)cc2s1	inconclusive: -30% [at 46 µM]	
COc1ccc(CCNC(=O)c2ccc3c(c2)N(Cc2c(F)cccc2Cl)C(=O)CS3)cc1OC	inconclusive: -12.8% [at 46 µM]	
CC(C)c1ccc(OCC(=O)NC(Cc2c[nH]c3ccccc23)C(=O)O)cc1 (configuration not stated)	inconclusive: 12.2% [at 46 µM]	
Cc1ccc(CN(Cc2ccco2)C(=S)Nc2ccccc2C)cc1	inconclusive: -24.5% [at 46 µM]	
O=C(Cn1c(SCc2cccc(F)c2)nc2cccnc21)Nc1ccc(F)c(Cl)c1	inactive	
COc1cc(O)oc1C=Nc1ccc(Cl)cc1Cl	inactive	
C=CCc1cccc(C2Nc3ccccc3C(=O)N2O)c1O (configuration not stated)		inconclusive: 12.6 µM [inhibitor, single point]
Cc1c(-c2ccc(F)cc2)nc(N)c(C#N)c1-c1ccco1	inactive	
Cc1nc([N+](=O)[O-])c(Br)n1CC(=O)c1ccc2ccccc2c1		inconclusive: 35.5 µM [cytotoxic, single point]

Compound	ratio change, negative = inhibition	Potency
N#Cc1cc(-c2ccccc2)cnc1Sc1ccc(Cl)cc1	inactive	
COc1ccc(CCNc2cc(C)nc3c(-c4ccc(Cl)cc4)cnn23)cc1OC		inconclusive: 35.5 µM [falling, single point]
COc1cccc(C2=C(C(C)=O)Sc3nncn3N2C(C)=O)c1	inconclusive: -21.6% [at 46 µM]	
O=C(CCN1C(=O)CSC1=O)Nc1ccc(Br)cc1	inactive	
Cc1noc(C)c1COc1cccc(C(=O)OC(C)C(=O)Nc2ccc3c(c2)OCO3)c1 (configuration not stated)	inconclusive: -33.5%	
COc1cc(C(=S)N2CCCCC2)ccc1O	inactive	
Cn1cnc(S(=O)(=O)N2CCC(C(=O)NCc3ccccc3Cl)CC2)c1	inactive	
N#Cc1nc(-c2cccs2)oc1NCCc1ccccc1	inactive	
Cc1ncc([N+](=O)[O-])n1CCO	inconclusive: 14.2%	
Cc1ccccc1N1CC(C(=O)Nc2nnc(SCC(=O)Nc3nccs3)s2)CC1=O (configuration not stated)	inconclusive: 10.5%	
COc1ccc2c(C)cc(SCC(=O)Nc3ncc(Cl)cc3Cl)nc2c1	inactive	
COC(=O)NNC(=O)COc1ccc2ccccc2c1Br	inactive	
Cc1ccc(SC2CC(=O)N(c3ccc4c(c3)OCCO4)C2=O)cc1 (configuration not stated)	inactive	
COc1ccc(NC(=S)NCCc2ccc(Cl)cc2)c(OC)c1		inconclusive: 35.5 µM [fluorescent, single point]
COC(=O)C(C)(C)ONC(=O)Nc1ccccc1Br	inconclusive: -5.95%	
O=C(NNC(=O)c1ccccc1Br)c1cccc(Cl)c1	inconclusive: 3.97%	
O=C(Nc1ccc(CN2CCOCC2)cc1)c1ccc(N2CCCC2)c([N+](=O)[O-])c1	inactive	
Nc1ccc(C(=O)N/N=C\C=C\c2ccc([N+](=O)[O-])cc2)cc1	inconclusive: 8.39% [at 46 µM]	
Cc1ccc(-n2ncc(C(=O)NCCN3CCCC3)c2C2CCN(C(=O)OC(C)(C)C)CC2)cc1C	inconclusive: -10.8% [at 46 µM]	
CCn1cc(C(=O)O)c(=O)c2cc(F)c(N/N=C/c3ccccc3)cc21		inconclusive: 12.6 µM [falling, partial curve]
Cc1occc1C(=O)N/N=C/C(Br)=C/c1ccccc1	inconclusive: -28.9% [at 46 µM]	

Compound	ratio change, negative = inhibition	Potency
COc1ccc(OC)c2sc(N3CCN(C(=O)CCS(=O)(=O)c4ccc(F)cc4)CC3)nc12	inactive	
Nc1ccc2c(c1)OC1(CCCCC1)O2	inconclusive: -14.9% [at 46 µM]	
Cc1cc2cc(CNC(=O)c3ccc(S(=O)(=O)N4CCCC4)cc3)ccc2n1C	inactive	
CCN1CCc2c(C#N)c(N3CCOCC3)nc(N3CCOCC3)c2C1	inactive	
CC(=O)C1=C(O)C(=O)N(CCc2c[nH]c3ccccc23)C1c1ccc(O)cc1 (configuration not stated)	inactive	
Cc1nc2ccccn2c1C(=O)N/N=C/c1ccc([N+](=O)[O-])o1	inconclusive: 77.2% [at 46 µM]	
Cc1cccc(OCC(=O)Nc2cc(-c3ccccc3F)nn2-c2ccccc2)c1	inconclusive: 4.88% [at 46 µM]	
N/C(=N\c1nc2ccccc2o1)NC(=O)c1cccc(Cl)c1	inconclusive: 7.98% [at 46 µM]	
CC(C)(C)n1ncc2c(=O)n(CC(=O)NCc3ccc(F)cc3)cnc21	inconclusive: -27.5%	
N#Cc1c[nH]n2c(=O)c3c(nc12)CCC3	inconclusive: 4.93% [at 46 µM]	
CC(C)NC(=O)N1CCN(S(=O)(=O)c2ccc3c(ccn3C)c2)CC1	inconclusive: -6.76% [at 46 µM]	
COc1ccc(C(=O)NCc2cccnc2)cc1C(=O)NCc1cccnc1	inconclusive: -4.73%	
C=CCn1c(C)cc(-c2csc(NC)n2)c1C	inactive	
Cc1nc(-c2ccccc2)nc2[nH]c(-c3ccccc3)cc(=O)c12	inconclusive: 33%	
CC(=O)n1cc(/C=N/NC(N)=S)c2ccccc21	inconclusive: 50.3% [at 46 µM]	
CCn1c(SCC(=O)N=Nc2c(O)[nH]c3ccccc23)nnc1-c1ccc(C(C)(C)C)cc1	inactive	
Cc1ccc(CNC(=O)c2ccc(NC(=O)N3CCSc4ncccc43)cc2)cc1	inconclusive: 19.5% [at 46 µM]	
O=C(NC1CC2CCC(C1)N2Cc1nnnn1Cc1ccco1)NC12CC3CC(CC(C3)C1)C2 (configuration not stated)	inconclusive: -39.3%	
Cc1c(C(=O)Nc2cccc(Cl)c2)sc2nc3n(c(=O)c12)N=C(c1cccc(Br)c1)CS3	inconclusive: 13.9% [at 46 µM]	
